Experimental data reported in patent US8653049B2, “Normuramyl glycopeptide compounds” (priority 2008, dated 2014).

System: Trichophyton mentagrophytes TM 179
Experiment: Adjuvant activity for hsp60 DNA vaccine against ringworm
Format: in vivo, guinea pigs
Conditions: skin lesion sample day 8

Measured: Results of cultivation Day 13

CCCCCCCCCCCCCCC(CCCCCCCCCCCCCC)C(=O)OC[C@H]1OC(O)[C@H](NC(C)=O)[C@@H](OCC(=O)N[C@@H](CC)C(=O)N[C@H](CCC(=O)O)C(N)=O)[C@@H]1O (stereo partly shown) [B30-norAbu-MDP]
Positive: group 1: 200 μg adjuvant at −48 h + 20 μg DNA | group 2: 200 μg adjuvant at −24 h + 20 μg DNA | group 3: 200 μg adjuvant at 0 h + 20 μg DNA | group 4: 200 μg adjuvant at +24 h + 20 μg DNA
